Article PMC10920779, “Targeting P2Y14R protects against necroptosis of intestinal epithelial cells through PKA/CREB/RIPK1 axis in ulcerative colitis” (Nature Communications, 2024)
For part of its entries the source gives two or more results. This list holds those alone. An entry can have further records. Results that share an entry differ, and nothing given here explains why; dose, time, organism, isomer or construct need not be as stated for each record.

Tested on: DSS-induced colitis in mice
Assay: DSS-induced acute colitis in WT mice, P2Y14R antagonist treatment (body weight, DAI, colon length, H&E, tight junction staining, TEM)
Set-up: scale not given here
Settings: DSS-treated mice

`O=C(O)c1cc(-c2ccc(C3CCNCC3)cc2)c2ccc(-c3ccc(C(F)(F)F)cc3)cc2c1` [PPTN] was tested, and the DAI (Day 4) was 3, 1, 2, the DAI (Day 6) was 4 and 2 and the DAI (Day 7) was 3, 2, 5.
